In PubChem BioAssay AID485318 (Broad Institute, 2010) one finds activity change, negative = inhibition data, which are given here for 24 compounds.

By UniProt entry, the sequences of proteins in these tests, tags left out. Where a name states a change or a piece, a line headed by the entry shows the natural chain unless it says otherwise.
UniProt O15379: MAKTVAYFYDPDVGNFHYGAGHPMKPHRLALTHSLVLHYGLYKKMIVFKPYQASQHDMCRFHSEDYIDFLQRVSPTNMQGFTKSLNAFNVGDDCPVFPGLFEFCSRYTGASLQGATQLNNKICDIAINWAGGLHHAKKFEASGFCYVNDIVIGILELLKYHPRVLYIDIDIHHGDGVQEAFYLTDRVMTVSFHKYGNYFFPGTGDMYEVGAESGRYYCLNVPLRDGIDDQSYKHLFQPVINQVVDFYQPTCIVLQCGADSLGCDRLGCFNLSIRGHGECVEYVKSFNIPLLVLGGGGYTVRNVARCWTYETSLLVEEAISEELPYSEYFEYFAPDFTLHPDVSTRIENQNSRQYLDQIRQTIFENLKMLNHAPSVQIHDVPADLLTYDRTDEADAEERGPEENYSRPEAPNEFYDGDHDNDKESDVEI

The campaign covered roughly 1,400 compounds. Fewer than 10 were called active.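 The calls were made as follows: active = fluorescence-lowering compounds whose fitted half-maximal concentration is at or below ten times the highest valid dose tested; inconclusive = flat curve at 30 to 70% inhibition, or poor fit; inactive = the rest.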 The list shows a part of the results.

This experiment has as its target Histone deacetylase 3 (Homo sapiens) (UniProt O15379). Kind of experiment: inhibition of human HDAC3 enzymatic activity – biochemical, fluorescence, cherry-picked samples, counter-screen for JMJD2C/GASC1 demethylase inhibitor project, dose response (AID 485318).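 Also: enzyme preincubated with compound before substrate and trypsin were added; 0% = neutral control wells and -100% = SAHA positive control wells.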 Particulars: recombinant HDAC3, fluorogenic peptide/trypsin coupled; at 12 µM (top of the series). (A counterscreen serves to expose hits that act by an unwanted route or on another target.)
With `CCc1ccc(N2C(=O)NC(=O)/C(=C\c3cc(C)n(-c4cc(C(=O)O)cc(C(=O)O)c4)c3C)C2=O)cc1`, the activity change, negative = inhibition is inactive: -1.7%.

For `Cn1ncnc2c(=O)n(C)c(=O)nc1-2`, the activity change, negative = inhibition was inactive: -0.0129%. Next, `CC1(C)OC(c2ccccc2)=C/C(=C/C=C2C(=O)NC(=S)NC2=O)O1`: inactive: 0.571%; `C=CCn1c(O)c(/C(C)=N/NC(=S)Nc2ccccc2)c(=O)[nH]c1=O`: inactive: 0.842%; `CCC(=NCC1CCCO1)c1c(O)[nH]c(=O)[nH]c1=O` (centres undefined): inactive: -0.00937%. For the compound `COc1ccc(OC)c(N2C(=O)/C(=C/c3ccco3)C(=O)NC2=S)c1`, the activity change, negative = inhibition was inactive: 0.0554%. In the case of `CCOc1cc(C=C2C(=O)NC(=O)NC2=O)cc([N+](=O)[O-])c1O` it was inactive: 0.274%; in that of `Cc1cccc(N2C(=O)NC(=O)/C(=C\c3cnc(-c4ccccc4)nc3)C2=O)c1`, inactive: 0.427%.

With `CN(C)c1ccc(/C=C2/C(=O)NC(=O)N(Cc3ccco3)C2=O)cc1`, the activity change, negative = inhibition is inactive: 0.691%. In the case of `COc1ccc(/C=C2/C(=O)NC(=O)N(C3CCCCC3)C2=O)cc1CSc1ccccn1`, the activity change, negative = inhibition is inactive: 0.021%. In the case of `COc1ccc(CC2C(=O)NC(=O)N(c3ccccc3)C2=O)c(OC)c1` (centres undefined) it was inactive: 0.0457%; in that of `COc1cc(CC2C(=O)N(C)C(=O)N(C)C2=O)ccc1OCc1ccccc1`, inactive: -0.256%; in that of `CC(C)Oc1ccc(Cc2c(O)[nH]c(=O)[nH]c2=O)cc1`, inactive: -0.759%. In the case of `CCOC(=O)/C(=N\Nc1ccccc1)N1CC1` it was inactive: 1.12%. In the case of `COc1ccc(N2C(=O)NC(=O)/C(=C/c3cccc(OC(=O)c4cccs4)c3)C2=O)cc1Cl` it was inactive: 0.566%; in that of `O=C1NC(=O)C(Sc2ccccc2[N+](=O)[O-])C(=O)N1`, inactive: 1.15%. Consider `CC1C(c2cccs2)=[N+]([O-])C(C)(C(=O)c2ccc(Cl)cc2)N1O` (centres undefined), for which the activity change, negative = inhibition was inactive: 0.334%.

For `O=C1NC(=O)N(Cc2ccccc2)C(=O)/C1=C/C=C/c1ccco1`, the activity change, negative = inhibition was inactive: -0.152%.

As to `c1ccc2c3c(ccc2c1)OCC1CONC31` (centres undefined), the activity change, negative = inhibition is inactive: -0.24%. In the case of `Cc1nc2c(=O)n(C)c(=O)nc-2n(C)n1` it was inactive: -0.0871%.

As for `Cc1cc(C=C2C(=O)NC(=S)NC2=O)c(C)n1-c1ccc2c(c1)OCO2`, the activity change, negative = inhibition was inactive: 0.553%.

As for `O=C1NC(=O)C(=Cc2csc3ccccc23)C(=O)N1`, the activity change, negative = inhibition is inactive: -0.693%. In the case of `C=CCN1C(=O)NC(=O)/C(=C/c2ccc(OC)c(CSc3ccccn3)c2)C1=O` it was inactive: -0.106%; in that of `COC(=O)C1=C(c2ccc(OCc3ccccc3)cc2)C[C@@H]2CC[C@H]1N2C(=O)NCc1ccc([N+](=O)[O-])cc1`, inactive: -0.185%.
